# In PubChem BioAssay AID1439 (NMMLSC, 2008):
# Sequences of proteins named here, by UniProt entry; tags and fusion partners are left off.
# UniProt P09471, whole entry, looked up: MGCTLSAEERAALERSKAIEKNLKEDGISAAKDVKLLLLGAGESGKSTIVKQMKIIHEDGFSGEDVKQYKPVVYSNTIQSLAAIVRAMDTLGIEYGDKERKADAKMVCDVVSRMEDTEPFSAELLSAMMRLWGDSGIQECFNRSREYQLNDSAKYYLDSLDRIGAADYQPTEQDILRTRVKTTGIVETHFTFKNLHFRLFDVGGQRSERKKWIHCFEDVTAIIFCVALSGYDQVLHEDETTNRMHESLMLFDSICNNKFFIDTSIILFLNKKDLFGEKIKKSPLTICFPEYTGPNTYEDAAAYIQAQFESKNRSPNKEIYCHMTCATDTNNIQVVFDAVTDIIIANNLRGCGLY
# Hit rate of the full screen: of about 220,000 compounds, about 770 (0.35%) were called active. Inconclusive results, whose numbers are uncertain, are shown with a selection of clear calls. No stated cut-off is given here; in the data, active means binding response below about 49% or above about 150%; inconclusive means no clear call, values can overlap the other calls; inactive means in between.
# Molecular target: Guanine nucleotide-binding protein G(o) subunit alpha (Homo sapiens) (UniProt P09471)
# Assay: RGS7-Galphao binding modulators, primary screen, biochemical, multiplexed bead flow cytometry (AID 1439);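 further: fluorescent Galphao held in activated GDP-AlF4 state binding bead-coupled RGS7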
# Conditions: at 10 µM, actives lie on both sides
row,SMILES,binding response (% of control)
1,Cc1ccc(-c2nc3ncccc3o2)cc1NC(=O)c1ccccc1,inconclusive: 177%
2,CCOC(=O)c1cn(Cc2ccccc2)c2cc(C)nn2c1=O,inconclusive: 111%
3,O=C(CCN1CCCC1)c1cccs1,inconclusive: 78%
4,CC1(C)CC(=O)C2=C(C1)OC(/N=C/N1CCCC1)=C(C#N)C2c1ccccc1 (stereo unspecified),inconclusive: 113%
5,COC(=O)c1cc2c(cc1Cl)N1CCCCCC1=NS2(=O)=O,inconclusive: 93.6%
6,NC(=O)C1Cc2ccccc2CN1S(=O)(=O)c1cccs1 (stereo unspecified),inconclusive: 98.6%
7,c1ccc2c(c1)CCCN2c1nc(N2CCOCC2)nc(N2CCOCC2)n1,inconclusive: 115%
8,CC(C)Cn1c(-c2nn(C)cc2Cl)n[nH]c1=S,active: 45.2%
9,CN(C)/C=C/c1[nH]c(=O)[nH]c(=O)c1[N+](=O)[O-],inconclusive: 96.2%
10,O=C(COc1ccc2ccccc2c1)NCCc1ccc2c(c1)OCCO2,inactive: 99.1%
11,c1ccc(-n2nnnc2SCc2cccc3nsnc23)cc1,inactive: 102%
12,O=c1c2ccccc2cnn1Cc1n[nH]c(=S)n1C1CC2CCC1C2 (stereo unspecified),inconclusive: 78.4%
13,COc1ccc(S(=O)(=O)Nc2ccccc2Cl)cc1NC(C)=O,inconclusive: 90.1%
14,N#Cc1ccc(CSc2nnc(-c3ccncc3)o2)cc1,inconclusive: 85.1%
15,CN(C)CCCn1c(SCC(=O)N2CC(=O)Nc3ccccc32)nc2ccccc2c1=O,inconclusive: 113%
16,COc1ccc(CCNC(=O)Cn2cnc3scc(-c4ccccc4)c3c2=O)cc1OC,inactive: 95.2%
17,COC(=O)c1ccc(NCC(=O)Nc2cc(C)cc(C)c2)cc1,inconclusive: 106%
18,COc1ccc(Nc2oc(-c3ccc(F)cc3)nc2C#N)cc1,inconclusive: 17.6%
19,CSc1nc(-c2ccccc2)c(C#N)c(=O)[nH]1,inconclusive: 100%
20,CN(C)c1nc(N)c([N+](=O)[O-])c(NCC2CCCO2)n1 (stereo unspecified),inconclusive: 73.3%
21,O=C(NCC(=O)N1CC(O)CC1C(=O)N1CC(O)CC1C(=O)OCc1ccccc1)OCc1ccccc1 (stereo unspecified),inactive: 98.3%
22,COc1ccc(C2/C=C\CN(S(=O)(=O)c3ccc(-c4ccccc4)cc3)CC(=O)N2Cc2ccc(F)cc2)cc1 (stereo unspecified),inconclusive: 111%
23,CC(C)(CC(=O)O)CC(=O)Nc1ccc(Oc2ccc(C(C)(C)C)cc2)nc1,inconclusive: 125%

row,SMILES,binding response (% of control)
1,CCCC(O)(CCN1CCOCC1)c1ccc(Cl)cc1 (stereo unspecified),inconclusive: 105%
2,CCOC(=O)C1CCCN(C(=S)Nc2ccc(F)cc2)C1 (stereo unspecified),inactive: 96.6%
3,CCCCC1=CC2=CC(=O)C(C)(OC(=O)CC)C(=O)C2=CN1Cc1ccc2c(c1)OCO2 (stereo unspecified),inconclusive: 143%
4,CC(=O)c1c(C)[nH]c(C(=O)CSc2ccc(F)cc2)c1C,inconclusive: 113%
5,O=C(Cn1c(=O)c(=O)n(Cc2ccccc2)c2ccc(Cl)cc21)Nc1cc(F)ccc1F,inactive: 103%
6,CCC(CC)NC(=O)Cc1ccc(F)cc1,inactive: 95.3%
7,C=C1[C@@H](C)C2[C@H](Cc3ccccc3)NC(=O)[C@]23OC(=O)CC[C@H](O)CCC[C@H](C)C/C=C/[C@H]3[C@@H]1O (stereo partly specified),inconclusive: 114%
8,N#Cc1nnn(-c2cc(Cl)cc(Cl)c2)c1N,inconclusive: 117%
9,Cc1ccc2c(c1)nnc1nnc(SCC(=O)O)n12,inconclusive: 89.8%
10,O=C(N/N=C/c1sc(N2CCOCC2)nc1-c1ccccc1)c1ccccc1F,inconclusive: 176%
11,C=CCN(CC=C)C(=O)C[n+]1ccc(C(N)=O)cc1,inconclusive: 113%
12,Cc1ccc(S(=O)(=O)CCSc2n[nH]c(=O)n2-c2ccccc2)cc1,inconclusive: 98.3%
13,Fc1ccc(COc2cccc(CNCc3ccncc3)c2)cc1,inactive: 99.1%
14,CC1CC(C)(C)NC(=S)N1CCCC(=O)Nc1ccc2c(c1)OCCO2 (stereo unspecified),inconclusive: 111%
15,Cc1cc2oc(C(=O)N(Cc3cccs3)C3CCS(=O)(=O)C3)cc(=O)c2cc1Cl (stereo unspecified),inconclusive: 132%
16,COCC1CCCN(Cc2nc(Cc3ccccc3)no2)C1 (stereo unspecified),inconclusive: 109%
17,CC(=O)N=c1sc2ccccc2n1C,inactive: 102%
18,CC(NCC(O)COc1ccc(S(=O)(=O)N2CCOCC2)cc1)c1ccccc1 (stereo unspecified),inconclusive: 98.1%
19,COc1cccc(C(=O)Nc2nc(SCc3ccc(Cl)cc3)n[nH]2)c1,inconclusive: 173%
20,Cc1cc(-c2nnc(SCC(=O)Nc3nc(-c4ccccc4)cs3)o2)no1,inconclusive: 85.3%
21,CC1(C)CC(=O)C=C(NNC(=O)c2cccnc2)C1,inconclusive: 92.1%
22,Cn1cc(/C=N/NC(=O)c2cc3cc(Br)ccc3o2)c2ccccc21,inconclusive: 118%
23,Cc1cc2cc(CNC(=O)c3ccc(Br)o3)ccc2[nH]1,inconclusive: 86.8%

# Shown with bars between the fields: entries from further up.
row | SMILES | binding response (% of control)
16 | COc1ccc(CCNC(=O)Cn2cnc3scc(-c4ccccc4)c3c2=O)cc1OC | inactive: 95.2%
18 | COc1ccc(Nc2oc(-c3ccc(F)cc3)nc2C#N)cc1 | inconclusive: 17.6%
6 | CCC(CC)NC(=O)Cc1ccc(F)cc1 | inactive: 95.3%

# (next part)

row,SMILES,binding response (% of control)
1,Cn1nnnc1SCC(=O)NCc1cc([N+](=O)[O-])ccc1O,inconclusive: 99.5%
2,O=C(c1cnccn1)N(Cc1ccco1)C1(C(=O)NC2CCCCC2)CCCCC1,inactive: 88.9%
3,O=C1CC(Cc2ccccc2)C(=O)N1c1ccccn1 (stereo unspecified),inconclusive: 80%
4,O=[N+]([O-])c1cccc(-c2cn3nc(-c4ccccc4)c(-c4ccccc4)nc3n2)c1,inconclusive: 131%
5,Cc1ccc(OCc2nnnn2-c2ccccc2)cc1,inactive: 106%
6,CCCNC(=O)c1oc2ccc3c(c2c1C)C(=O)CC(C)(C)O3,inactive: 97%
7,O=C(NC(=S)Nc1ccc(CN2CCOCC2)cc1)c1ccco1,inconclusive: -4.17%
8,OCCNCc1cccc(Br)c1,inconclusive: 109%
9,Cc1ccc(C(=O)N/C(=C/c2cccnc2)C(=O)NCc2ccco2)cc1,inactive: 101%
10,Cn1c(=O)n(Cc2ccc(Cl)cc2)c(=O)c2c1nc1n2CCN1Cc1ccco1,inactive: 100%
11,C/C(=N\NC(=O)Cc1c[nH]c2ccccc12)c1ccc2ccccc2c1,inconclusive: 94.3%
12,Cc1ccc(C2=N/C(=C/N3CCOCC3)C(=O)O2)cc1,inactive: 92.8%
13,CCOc1ccc(CCNC(=O)COC(=O)c2cccc(OC)c2O)cc1OCC,inconclusive: 98%
14,Clc1cc(Cl)cc(CN2CCSCC2)c1,inconclusive: 102%
15,CC1(C)Cc2c(c(N3CCCC3)nc3sc4c(N5CCNCC5)ncnc4c23)CO1,inconclusive: 132%
16,CCN(CC)S(=O)(=O)c1ccc(C)c(NC(=S)N2CCN(Cc3ccc4c(c3)OCO4)CC2)c1,inactive: 107%
17,CCNC(=S)Nc1ccc(S(=O)(=O)Nc2cc(C)nc(C)n2)cc1,inactive: 104%
18,Cc1nnc(N/N=C/c2cccs2)[nH]c1=O,inconclusive: 104%
19,Cc1cc(C(=O)N/N=C/c2c(C)nn(-c3ccccc3)c2C)c(C)o1,inconclusive: 58.6%
20,Cc1oc2c(C)c(O)ccc2c(=O)c1-c1nncn1-c1ccccc1,inconclusive: 124%
21,CC(C)(C)S(=O)(=O)/C(C#N)=N/Nc1ccc(S(N)(=O)=O)cc1,inconclusive: 89.7%
22,CC[C@@H](Nc1ncnc2c1oc1ccccc12)C(=O)O,inconclusive: 136%
23,CN(CCC#N)C(=O)COC(=O)c1cccnc1Nc1ccccc1F,inactive: 105%

row,SMILES,binding response (% of control)
1,CCN(C(=O)CN1CCN(S(=O)(=O)c2cc(Cl)ccc2Cl)CC1)c1c(N)n(Cc2ccccc2)c(=O)[nH]c1=O,inactive: 89%
2,C=CCN1c2ccccc2[C@]23C[C@@H](C(=O)OC)N(C(=O)CC(C)C)C2=NC(C(=O)OC)=C(C(=O)OC)[C@H]13,inconclusive: 106%
3,C(=N\Nc1nc2ccccc2[nH]1)/c1ccc2c(c1)OCCO2,inconclusive: 151%
4,O=C(CSc1ncn[nH]1)c1cc2ccccc2o1,active: 243% [activator]
5,O=C(COc1ccccc1C(=O)O)Nc1nc2ccc([N+](=O)[O-])cc2s1,inconclusive: 129%
6,COc1ccc(-c2ccc(/C=N/NC(=O)Cc3nnc(N)s3)o2)cc1Cl,inconclusive: -29%
7,Cc1nc([N+](=O)[O-])c(N2CCOCC2)n1Cc1ccccc1,inconclusive: 239%
8,CC1C/C(=N\NC(N)=S)c2cc(Cl)ccc2S1 (stereo unspecified),inconclusive: 95.5%
9,C=CCC(CC(O)COCCC)C(=O)NNC(=S)Nc1ccccc1 (stereo unspecified),inconclusive: 111%
10,COC(=O)c1scc(C)c1NC(=O)C(Cl)c1ccccc1 (stereo unspecified),inconclusive: 113%
11,O=C1CN(c2cc(Cl)cc(Cl)c2)C(=O)CN1/N=C/c1cccnc1,inconclusive: -1.24%
12,COc1ccc(CNC(=O)N2CCN(c3ccc(F)cc3)CC2)cc1Cl,inconclusive: 100%
13,COCCN(CCOC)S(=O)(=O)c1ccc(/C(O)=C(\C#N)c2nc3ccccc3[nH]2)cc1,inactive: 104%
14,CCOc1ccc(C(C)=O)cc1CN1C(=O)C(=O)N(CC)C1=O,inconclusive: 104%
15,O=C(NCCCN1CCCC1)[C@H](CSCc1ccccc1)N1Cc2ccccc2C1=O,inconclusive: 19.9%
16,O=C(Cn1cnc2ccccc2c1=O)N1CCN(c2ccc(F)cc2)CC1,inconclusive: 114%
17,Cc1cc(C)c(C(=O)CSc2nnc(N)s2)cc1C,inconclusive: 251%
18,CC(=O)N1CCC(N(CCN2CCOCC2)C(=S)Nc2ccc(C)cc2C)CC1,inactive: 99.1%
19,S=C1N(c2ccccc2)C(c2ccccc2)N2CCCN12 (stereo unspecified),inactive: 97.5%
20,FC(F)(F)c1cnc(C(c2ccccn2)c2ncn[nH]2)c(Cl)c1 (stereo unspecified),inconclusive: 106%
21,O=C(Cn1cncn1)N/N=C/c1cc([N+](=O)[O-])ccc1O,inconclusive: 112%
22,Cc1ccc(C)c(/C=N/Nc2nc3ccccc3c(=O)n2O)c1,inconclusive: 86.3%
